Results reported in PMC9201945 (Frontiers in Molecular Neuroscience, 2022).
Results are given in words; binding and its absence hold for the method and conditions named. In cells and extracts the contact can be indirect. Some binding calls cover weakened binding; strength is not graded here.

Chains of the proteins cited; added tags and fusions are not shown.
UniProt Q9EP80: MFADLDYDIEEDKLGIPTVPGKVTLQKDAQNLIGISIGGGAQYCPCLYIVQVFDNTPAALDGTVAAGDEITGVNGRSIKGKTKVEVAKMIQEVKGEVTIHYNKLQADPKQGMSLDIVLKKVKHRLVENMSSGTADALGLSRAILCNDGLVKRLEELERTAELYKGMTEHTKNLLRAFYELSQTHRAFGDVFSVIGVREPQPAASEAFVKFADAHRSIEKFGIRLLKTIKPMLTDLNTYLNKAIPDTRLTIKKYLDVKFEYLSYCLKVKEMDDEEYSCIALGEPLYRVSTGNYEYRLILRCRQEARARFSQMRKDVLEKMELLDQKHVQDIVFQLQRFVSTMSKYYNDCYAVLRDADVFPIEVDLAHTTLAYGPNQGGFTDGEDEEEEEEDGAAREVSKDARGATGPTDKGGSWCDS

Biological target: PICK1 as two differently tagged copies (mGFP-PICK1 and mCherry-PICK1) (UniProt Q9EP80)
Assay: FRET or BRET; FLIM-FRET (mGFP lifetime) in dendrites of cultured rat neurons co-expressing mGFP-PICK1 and mCherry-PICK1; vehicle or NMDA for 3 min, fixed at 0 or 5 min after stimulation

## PICK1 as two differently tagged copies (mGFP-PICK1 and mCherry-PICK1) (from UniProt Q9EP80 1-416)
  binding: binds
